US20220251223A1
No constants are given. Whether binding was seen depends on the method and setting. Some binding calls cover weakened binding; strength is not graded here.

By UniProt entry, the sequences of proteins in these tests, tags left out.
UniProt P25025: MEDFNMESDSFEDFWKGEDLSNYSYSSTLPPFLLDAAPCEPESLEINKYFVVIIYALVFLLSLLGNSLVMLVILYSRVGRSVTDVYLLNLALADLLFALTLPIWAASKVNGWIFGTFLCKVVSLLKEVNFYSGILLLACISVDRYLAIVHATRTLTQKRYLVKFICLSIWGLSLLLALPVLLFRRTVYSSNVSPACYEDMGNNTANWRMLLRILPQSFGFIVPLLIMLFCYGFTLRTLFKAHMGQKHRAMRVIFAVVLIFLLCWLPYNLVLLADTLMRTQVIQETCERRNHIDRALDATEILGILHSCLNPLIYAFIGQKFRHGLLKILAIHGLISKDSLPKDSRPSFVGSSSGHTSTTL

What was measured:
[1] = biological target: IL-8R (IL-8RB) expressed on lentivirally transduced HEK 293T cells (UniProt P25025); assay: flow cytometry binding titration on IL-6R-/IL-8R+ HEK 293T cells
[2] = biological target: IL-8R (IL-8RB) expressed on lentivirally transduced HEK 293T cells (UniProt P25025); assay: flow cytometry on HEK 293T cells (FIG. 7 legend)
[3] = biological target: IL-8R (IL-8RB) expressed on lentivirally transduced HEK 293T cells (UniProt P25025); assay: flow cytometry on transduced HEK 293T cells

Measured: binding

B1: 10H2 (anti-IL-8RB monoclonal hIgG1 antibody) (antibody, V domains shown)
VH: EVQLVETGGRLVQPKGSLKLSCAVSGITFKTNAMNWVRQAPGKGLEWVARIRTKSYNYATYYADSVKDRFTISRDDSQSILYLQMNNLKTEDTAMYHCVREGRWGQGTLVTVSA
VL: QAVVTQESALTTSPGETVTLTCRSSTGAVTTSNYANWVQEKPDHLFTGLIGGTNNRPPGVPARFSGSLIGDKAALTITGAQIEDEAIYFCALWYSNHLVFGGGTKLTVL
binds: all assays above
